Results on 1 molecule are retold here after patent US20040072753A1, “Peptides for use in the treatment of alzheimer's disease” (priority 2000, published 2004).

Chains of the proteins cited; added tags and fusions are not shown. Lines headed by an entry give the natural chain unless they say otherwise; changes in a name come on top.
UniProt Q99714: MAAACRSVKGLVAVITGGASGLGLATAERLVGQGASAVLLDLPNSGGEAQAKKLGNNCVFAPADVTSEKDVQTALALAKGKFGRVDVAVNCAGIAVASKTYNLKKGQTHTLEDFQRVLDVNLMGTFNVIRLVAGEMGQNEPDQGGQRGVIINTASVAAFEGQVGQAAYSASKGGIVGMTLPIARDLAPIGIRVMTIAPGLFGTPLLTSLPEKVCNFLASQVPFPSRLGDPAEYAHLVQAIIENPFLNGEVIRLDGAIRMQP

The target of the experiment is T1, EAβBP peptide (ERAB residues 99-108) (human) (UniProt Q99714).
T1 sequence (peptide, looked up): KTYNLKKGQT
Briefly: ELISA, EAβBP-coated plate, biotinylated peptide 200 pM. On the technique in general: ELISA stands for enzyme-linked immunosorbent assay.

No constants are given. Whether binding was seen depends on the method and setting. Some results given as binding are weak or reduced against the parent protein; the word gives no strength.

B1: Aβ 12-28 (peptide)
peptide: VHHQKLVFFAEDVGSNK
modifications: biotinylated (LinKit-Biolink kit, site not stated)
For B1, the binding result is “binds”.
